Laboratory results taken from PubChem BioAssay AID2685 (National Center for Advancing Translational Sciences (NCATS), 2010).
The list shows a part of the results. Shown are side measurements of this screen, not its main read-out; they come without a call. Compounds called inactive in the main read-out are mostly missing here. Potencies come from curve fits of mixed quality, noted in brackets.

Test: qHTS Assay for Lipid Storage Modulators in Drosophila S3 Cells;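 for cell number change: cells counted by Cell Tracker Red CMTPX staining in the red channel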
Conditions: BODIPY lipid droplet fluorescence, 18-24 h; for cell number change: measured here: cell count max response, cells fed with added oleic acid
Summary of the method: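 Drosophila S3 cells loaded with oleic acid (400 uM, as added) and compounds at several concentrations; lipid droplets imaged by 488-nm laser-scanning cytometry, 500–530 nm intensity and object ratio to cell channel. Percent activity normalized to 20 uM Triacsin C.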

[1] = measured here: lipid fluorescence (Fed channel) AC50, cells fed with added oleic acid
[2] = measured here: cell number channel AC50, cells fed with added oleic acid

| Compound | AC50 [1] | cell number change | AC50 [2] |
| --- | --- | --- | --- |
| CCN(CC)CCn1c(SCC(=O)NCc2ccco2)nc2c(sc3ccccc32)c1=O | 5.8 µM [falling, partial curve] |  |  |
| COc1ccc(/C=C(\NC(=O)c2ccc(Cl)cc2)C(=O)NCCCN2CCOCC2)cc1OC | 0.116 µM [rising, single point] | -11.5% |  |
| COc1ccc(NCC(O)Cn2c(C)c(C)c3ccccc32)cc1 (centres undefined) | 1.84 µM [falling, partial curve] | -38.5% | 29.1 µM [falling, single point] |
| O=C(CSc1nnnn1-c1ccc(C(=O)O)cc1)NC1CC1 | 6.51 µM [rising, single point] | -1.74% | 1.3 µM [rising, partial curve] |
| CC1CCCCC1NC(=O)CSc1ccc([N+](=O)[O-])cc1 (centres undefined) | 29.1 µM [falling, single point] | -20.8% |  |
| CC(=O)O[C@H]1CC[C@@]2(C)[C@@H](CC[C@@H]3[C@@H]2CC[C@]2(C)[C@@H](C(C)(C)O)C[C@@H]32)C1 | 23.1 µM [falling, partial curve] | -18.1% |  |
| Cc1ccc(NC(=O)Nc2ccccc2)cc1[N+](=O)[O-] | 16.4 µM [falling, partial curve, poor fit] | -31.1% | 29.1 µM [falling, single point] |
| COC(=O)c1ccccc1-c1ccc(/C=N/NC(=O)c2cc3ccccc3o2)o1 | 2.59 µM [rising, full curve] | 17.4% |  |
| c1coc(C2Nc3ccccc3C3OCCC23)c1 (centres undefined) |  | 4.21% |  |
| Cc1ccc(NC(=O)CCCCCN2C(=O)[C@@H]3Cc4ccccc4CN3C2=O)cc1 | 0.0731 µM [rising, full curve, poor fit] | 25.3% |  |
| CN(C(=O)CCNC(=O)Cn1cnc2ccccc2c1=O)c1ccccc1F | 5.17 µM [falling, single point] | -21.8% |  |
| CS(=O)(=O)N(CC(=O)Nc1cccnc1)c1ccc2c(c1)OCCO2 | 0.231 µM [falling, full curve, poor fit] | -0.674% |  |
| CC(C)CC(c1nnnn1Cc1ccc(F)cc1)N1CCC(C(N)=O)CC1 (centres undefined) | 6.51 µM [rising, single point] | 7.51% |  |
| COC(=O)c1c(NC(=O)CN2C(=O)NC3(CCCCC3C)C2=O)sc2c1CCC2 (centres undefined) | 1.64 µM [falling, partial curve] |  |  |
| O=C(CSc1nc2ccccc2c(=O)[nH]1)N1CCN(c2ccccc2F)CC1 | 4.11 µM [falling, partial curve, poor fit] |  |  |
| N/C(Cc1ccc([N+](=O)[O-])cc1)=N\OC(=O)C1CCCCC1 |  | -12.6% |  |
| O=C(NC1CCCCC1)c1cc2c(cc1Cl)N1CCCCCC1=NS2(=O)=O |  | -8.43% |  |
| Cc1ccc(CNC(=O)N[C@@H](Cc2ccccc2)C(=O)O)cc1 | 6.51 µM [rising, single point] | 10.3% |  |
| NC(=O)c1c(NC(=O)COC(=O)c2ccc(S(=O)(=O)Nc3ccccc3)cc2)sc2c1CCCC2 | 3.66 µM [rising, partial curve] |  | 2.59 µM [rising, partial curve, poor fit] |

Single entries from the list:
COC(=O)c1ccccc1-c1ccc(/C=N/NC(=O)c2cc3ccccc3o2)o1 – AC50 [1]: 2.59 µM [rising, full curve]
O=C(CSc1nnnn1-c1ccc(C(=O)O)cc1)NC1CC1 – AC50 [1]: 6.51 µM [rising, single point]

Carrying on.

| Compound | AC50 [1] | cell number change | AC50 [2] |
| --- | --- | --- | --- |
| C/C=C/c1ccc(OCCN2CCc3ccccc3C2)c(OC)c1 | 7.31 µM [rising, partial curve] | 1.15% |  |
| COc1ccc(Nc2nnc(SC(C(=O)Nc3ccc(OC)c(Cl)c3)c3ccccc3)s2)cc1 (centres undefined) | 23.1 µM [falling, single point] | -40.1% | 0.00651 µM [falling, full curve, poor fit] |
| CC(=O)c1c(C)[nH]c(C(=O)Nc2nc(-c3ccc(Cl)cc3)cs2)c1C |  | -15.5% |  |
| CCC(=O)Nc1c2c(nn1-c1ccc(C)cc1)CS(=O)(=O)C2 |  | -82.1% | 29.1 µM [falling, single point] |
| CSCCC(NC(=O)c1ccco1)C(=O)OCC(=O)N1c2ccccc2NC(=O)C1(C)C (centres undefined) | 18.4 µM [falling, single point] | -14.7% |  |
| COc1ccc(C(=O)COC(=O)CCCN=C2NS(=O)(=O)c3ccccc32)c(OC)c1 | 20.6 µM [falling, single point] | -8.03% |  |
| Cc1nn(C)c(C)c1NC(=O)CCCSc1nc(-c2ccco2)cc(C(F)(F)F)n1 | 18.4 µM [falling, single point] | -39.1% | 14.6 µM [falling, single point] |
| O=C(OC(C(=O)Nc1ccc(Cl)c(C(F)(F)F)c1)c1ccccc1)C1=COCCO1 (centres undefined) |  | 19.3% |  |
| c1cc2c(cc1-n1cnnn1)OCO2 |  | 30.3% | 29.1 µM [rising, single point] |
| COc1ccccc1/C=C/C=N/n1c(-c2ccncc2)n[nH]c1=S | 0.082 µM [rising, full curve, poor fit] | 7.82% |  |
| O=C(Nn1c(O)c(C=C2N=c3ccccc3=N2)sc1=S)c1ccccc1Cl | 0.58 µM [falling, partial curve, poor fit] | 2.79% |  |
| COc1cc(C)ccc1OCc1cc(C(=O)NCCN2CCCC(O)C2)no1 (centres undefined) | 29.1 µM [rising, single point] | -12.9% | 0.146 µM [rising, full curve, poor fit] |
| CC(C)CCNC(=O)C(C)N(C(=O)Cn1nnc(-c2ccc(F)cc2)n1)C1CCCC1 (centres undefined) |  | 13.4% | 1.46 µM [rising, full curve, poor fit] |
| COc1ccc(N2C(=O)C(Cl)=C(NCc3ccccc3)C2=O)cc1 | 3.66 µM [rising, single point] | 75.6% | 16.4 µM [rising, partial curve] |
| CCNc1nc2c(c(=O)[nH]c(=O)n2C)n1Cc1ccc(F)cc1 |  | 39.5% | 11.6 µM [rising, partial curve, poor fit] |
| COCCn1c(C)cc(C(=O)COC(=O)C23CC4CC(CC(O)(C4)C2)C3)c1C | 18.4 µM [rising, single point] | 22.8% |  |
| S=C(NCCCN1CCOCC1)Nc1cccc(Cl)c1 | 0.00517 µM [falling, full curve, poor fit] | -56% | 0.00517 µM [falling, full curve, poor fit] |
| COc1ccc(/C=C/C(=O)C2C(=O)C=C(C)OC2=O)cc1O (centres undefined) | 29.1 µM [falling, single point] | -20.6% |  |
| Cc1ccc2ccc(C(Nc3ccccn3)c3ccccc3)c(O)c2n1 (centres undefined) | 1.3 µM [falling, partial curve] | -43.8% | 20.6 µM [falling, single point] |

| Compound | AC50 [1] | cell number change | AC50 [2] |
| --- | --- | --- | --- |
| COc1ccccc1S(=O)(=O)Cc1ccc(C(=O)NCc2ccc3c(c2)OCO3)o1 | 0.411 µM [rising, full curve] | 92.2% | 0.651 µM [rising, full curve] |
| COc1ccc(N2CCN(C(c3cc4cc(C)ccc4[nH]c3=O)c3nnnn3Cc3ccccc3)CC2)cc1 (centres undefined) | 6.51 µM [rising, single point] | 1.14% |  |
| CC1CCN(S(=O)(=O)c2ccc(NC(=S)NC(=O)c3ccc(Cl)cc3)cc2)CC1 | 1.16 µM [rising, single point] | -4.38% |  |
| CCOc1ccc(CCNC(=O)CCc2nnc3ccc(N4CCCC4)nn23)cc1OCC |  | -28.2% |  |
| O=C(Nc1cccc(N2C(=O)C=CC2=O)c1)c1cccs1 | 11.6 µM [falling, partial curve] | -95.5% | 9.2 µM [falling, partial curve] |
| Cc1noc(C)c1CSc1nnc2ccccn12 | 7.31 µM [falling, single point] | 4.92% |  |
| COc1ccccc1N1CCN(CC(=O)Nc2c(C)n[nH]c2C)CC1 |  | -4.05% |  |
| Cc1ccc(C)c(OC(=O)C2CSC3(C)CCC(=O)N23)c1C (centres undefined) |  | -14.6% |  |
| CCOC(=O)C1CCN(C(=O)COC(=O)c2nc3nc(C)cc(C)n3n2)CC1 | 6.51 µM [rising, single point] | 90.2% | 23.1 µM [rising, partial curve] |
| COc1cccc(NC(=O)CCCCCN2C(=O)[C@@H]3Cc4ccccc4CN3C2=O)c1 | 20.6 µM [rising, single point] | 13.2% |  |
| COC(=O)C1=C(C)NC(C)=C(C(=O)OC)C1c1ccc(OC(=O)c2oc3ccccc3c2C)c(OC)c1 | 8.2 µM [rising, partial curve] | 41.3% | 6.51 µM [rising, partial curve] |
| CCOc1ccc(S(=O)(=O)Nc2cc(OC)c(OC)cc2C(=O)O)cc1 | 29.1 µM [rising, single point] | -40.1% | 29.1 µM [falling, single point] |
| S=C(Nc1ccccc1Cl)N1CCCC1 | 2.91 µM [falling, full curve] | -25.7% |  |
| Cc1nn(C)c(C)c1NC(=O)CCl | 3.66 µM [falling, single point] | -11.8% |  |
| O=C(N/N=C/c1cccc(O)c1)c1ccc(NC(=O)C2CCCCC2)cc1 | 0.651 µM [falling, single point] | -26.9% |  |
| CC(=O)c1cccc(N(C(=O)CNC(=O)c2ccco2)C(C(=O)NC2CCCC2)c2ccco2)c1 (centres undefined) |  | 11.7% |  |
| COc1ccccc1S(=O)(=O)Cc1ccc(C(=O)N2CCN(c3ccc(C)cc3)C(C)C2)o1 (centres undefined) |  | 52% | 18.4 µM [rising, partial curve, poor fit] |
| Cc1ccc2nc(NC(=S)NC(=O)c3ccc(OC(C)C)cc3)sc2c1 | 20.6 µM [rising, partial curve, poor fit] | 5.82% |  |

An excerpt from above in order of formula weight, high to low:

| Compound | AC50 [1] | cell number change | AC50 [2] |
| --- | --- | --- | --- |
| CC(=O)c1cccc(N(C(=O)CNC(=O)c2ccco2)C(C(=O)NC2CCCC2)c2ccco2)c1 (centres undefined) |  | 11.7% |  |
| CCOc1ccc(CCNC(=O)CCc2nnc3ccc(N4CCCC4)nn23)cc1OCC |  | -28.2% |  |
| CCOC(=O)C1CCN(C(=O)COC(=O)c2nc3nc(C)cc(C)n3n2)CC1 | 6.51 µM [rising, single point] | 90.2% | 23.1 µM [rising, partial curve] |
